Data on 1 substance can be found in article PMC12955996.

Protein sequences, listed by entry. Tags and fused reporters are not part of them. Lines headed by an entry give the natural chain unless they say otherwise; changes in a name come on top.
UniProt Q8BH61: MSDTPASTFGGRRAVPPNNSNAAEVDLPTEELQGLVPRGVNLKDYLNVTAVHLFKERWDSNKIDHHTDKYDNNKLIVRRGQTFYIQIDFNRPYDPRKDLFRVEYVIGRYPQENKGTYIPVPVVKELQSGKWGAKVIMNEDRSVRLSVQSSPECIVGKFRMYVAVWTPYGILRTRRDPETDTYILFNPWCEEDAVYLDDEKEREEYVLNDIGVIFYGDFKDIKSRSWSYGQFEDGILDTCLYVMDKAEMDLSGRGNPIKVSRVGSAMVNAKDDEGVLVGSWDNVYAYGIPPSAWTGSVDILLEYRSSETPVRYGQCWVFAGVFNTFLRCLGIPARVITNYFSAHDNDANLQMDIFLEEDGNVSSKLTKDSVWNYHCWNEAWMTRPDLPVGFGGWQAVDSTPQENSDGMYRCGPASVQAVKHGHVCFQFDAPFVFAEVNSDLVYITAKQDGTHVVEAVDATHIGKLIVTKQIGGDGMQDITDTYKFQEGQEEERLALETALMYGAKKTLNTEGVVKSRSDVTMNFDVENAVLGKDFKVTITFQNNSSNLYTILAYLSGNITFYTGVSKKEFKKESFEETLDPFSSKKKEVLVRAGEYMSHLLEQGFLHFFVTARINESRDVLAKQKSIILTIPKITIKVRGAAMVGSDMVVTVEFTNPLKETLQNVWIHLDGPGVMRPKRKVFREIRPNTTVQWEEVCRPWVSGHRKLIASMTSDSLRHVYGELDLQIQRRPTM
UniProt P52480: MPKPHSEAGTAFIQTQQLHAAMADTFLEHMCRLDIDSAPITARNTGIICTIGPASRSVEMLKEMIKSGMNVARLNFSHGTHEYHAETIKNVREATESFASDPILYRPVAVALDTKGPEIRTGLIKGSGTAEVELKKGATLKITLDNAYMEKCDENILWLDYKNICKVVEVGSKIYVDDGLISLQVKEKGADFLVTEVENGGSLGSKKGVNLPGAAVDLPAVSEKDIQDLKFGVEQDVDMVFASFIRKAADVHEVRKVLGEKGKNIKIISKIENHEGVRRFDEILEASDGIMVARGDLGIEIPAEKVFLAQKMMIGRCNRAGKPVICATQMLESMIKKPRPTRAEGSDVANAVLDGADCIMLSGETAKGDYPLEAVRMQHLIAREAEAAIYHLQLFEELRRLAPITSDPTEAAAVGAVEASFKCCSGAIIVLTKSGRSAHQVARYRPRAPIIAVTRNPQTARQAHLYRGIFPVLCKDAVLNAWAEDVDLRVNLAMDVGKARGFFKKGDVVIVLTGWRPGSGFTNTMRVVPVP

The target in the test is Coagulation Factor XIII Subunit A (F13A1) (mouse (endogenous in BMDMs)) (UniProt Q8BH61). Kind of test: affinity purification with mass spectrometry; mass spectrometry (LC‐MS/MS) on F13A1 immunoprecipitates from BMDMs.

Results are given in words; binding and its absence hold for the method and conditions named. Binding seen in cells or lysates may run through a third protein. A yes stands for co-enrichment or nearness to the bait. Other partners may have been found.

Regarding “pyruvate kinase M2 isoform (PKM2) (from UniProt P52480 1-531)”, the binding result is listed as “binds”.
